In PubChem BioAssay AID540256 (National Center for Advancing Translational Sciences (NCATS), 2011):
Out of some 300,000 compounds screened, about 3,700 (1.2%) were called active. The shares of active, inactive and inconclusive entries below differ from those in the screen. Calls follow the shape of the full dose curve; tested in HEK293 cells. Potencies of inconclusive entries are doubtful fits and often do not repeat.
% is scaled to controls: 0 for no effect and ±100 for the full control effect; potency is read from the fitted curve at half-maximal effect.

Test: qHTS for Inhibitors of binding or entry into cells for Lassa Virus; also: nearly all actives have a fitted effect of over 50% in size
Details: Lassa virus pseudotype entry inhibition, cell reporter; activity change, negative = inhibition: at 37.9 µM (top of the series) unless noted
With `COc1cccc(CNC(=O)c2cc(-c3cccs3)nc3ccccc23)c1` the “activity change, negative = inhibition” value was inactive: -9.23% [at 46.1 µM].
With `Cc1ccc(C2(CCNS(=O)(=O)c3ccc(C)cc3)CCOC(C(C)C)C2)cc1` (stereo unspecified) the Potency was inconclusive: 29.1 µM [inhibitor, single point].
With `COc1cc(C(=O)N2CCC(c3ccncc3)CC2)cc(OC)c1OC` the Potency was inconclusive: 1.78 µM [inhibitor, single point].
In the case of `COc1ccc2oc(C(=O)N(C)CCOc3ccccc3)c(C)c2c1`, the Potency was inconclusive: 1.26 µM [inhibitor, single point].
In the case of `C=C(C)C1CC=C(C)/C(=N/NC(=O)COc2ccccc2Cl)C1` (stereo unspecified), the “activity change, negative = inhibition” value was inactive: -19.8%.
In the case of `CCC(C)N(CC(=O)Nc1cccc(C)c1C)C(=O)CCl` (stereo unspecified), the Potency was active: 3.16 µM.
For `COc1cccc(NC(=O)Cn2c3ccc(F)cc3c3nc4n(c(=O)c32)CCCS4)c1`, the Potency was inconclusive: 10 µM [inhibitor, partial curve].
For `O=C(NCC1OCCCN1S(=O)(=O)c1ccc(F)cc1)C(=O)NC1CCCC1` (stereo unspecified), the Potency was inconclusive: 11.2 µM [inhibitor, single point].
With `COC(=O)c1ccc(NC(=O)N2CCc3c([nH]c4ccccc34)C2c2ccc(C)cc2)cc1` (stereo unspecified) the Potency was inconclusive: 15.8 µM [inhibitor, single point].
With `COc1cccc(-n2cc(C(=O)NCCc3cccc(C)c3)c3ccccc3c2=O)c1` the “activity change, negative = inhibition” value was inactive: -9.47% [at 46.1 µM].
In the case of `COc1cccc(-c2nnc(-c3ccc4ccccc4c3)o2)c1`, the Potency was inconclusive: 35.5 µM [inhibitor, single point].
In the case of `CC(=O)N1CCc2cc(Br)cc(S(=O)(=O)N3CCC(C(=O)O)CC3)c21`, the Potency was inconclusive: 25.1 µM [inhibitor, single point].
With `O=C(Nc1cc(Cl)cc(Cl)c1)C1C2C=CC3(O2)C1C(=O)N(CCCN1CCOCC1)C3C(=O)NC1CCCCC1` (stereo unspecified) the “activity change, negative = inhibition” value was inactive: 5.88%.
For `CC(Nc1cc(C)cc(C)c1)=[N+](C)CCNS(=O)(=O)c1ccc(Cl)cc1`, the “activity change, negative = inhibition” value was inactive: -11.7% [at 46.1 µM].
With `Cc1cc(C)nc(Nc2nc3ccccc3s2)n1` the “activity change, negative = inhibition” value was inactive: -11.9%.
With `Cc1ccc(NC(=O)COc2ccccc2C(=O)Nc2ccccc2)cc1Cl` the “activity change, negative = inhibition” value was inactive: 13.6%.
In the case of `Cc1ccc2nc(-c3ccc(NC(=O)Cc4cccs4)cc3)[nH]c2c1`, the Potency was inconclusive: 29.1 µM [inhibitor, single point].
With `CCOc1cc(C(=O)Nc2ccc(N3CCN(S(C)(=O)=O)CC3)cc2)cc(OCC)c1OCC` the Potency was inconclusive: 0.794 µM [activator, single point].
With `Cc1nn(Cc2ccccc2Cl)c(Cl)c1C(=O)OCC(=O)NCc1ccco1` the Potency was inconclusive: 14.6 µM [inhibitor, partial curve].
With `COc1cc(NC(=O)CSc2nc(=O)n(CCN3CCOCC3)c3c2CCCC3)cc(OC)c1` the Potency was inconclusive: 10 µM [inhibitor, partial curve].
With `CCn1c2ccccc2c2nc3cc(S(=O)(=O)N4CCOCC4)ccc3nc21` the Potency was inconclusive: 6.31 µM [inhibitor, full curve].
In the case of `COc1cc2c(cc1OC)[C@@H](Cc1ccc(OCCC#N)cc1)N(C)CC2`, the “activity change, negative = inhibition” value was inactive: -27.9%.
For `O=C(COC(=O)/C=C/c1cccc(F)c1)NC(=O)NC1CCCC1`, the “activity change, negative = inhibition” value was inactive: -15.5%.
In the case of `COc1ccc(Cc2nnc(NC(=O)CSc3ccccc3)s2)cc1`, the Potency was inconclusive: 9.2 µM [inhibitor, single point].
For `Cc1ccc(C2=CSC3=NNC4(CCCCC4)NN23)cc1`, the “activity change, negative = inhibition” value was inactive: 2.71%.
With `CCOc1cc(/C=N/NC(=O)CN2CCOCC2)ccc1OCc1ccc(Cl)cc1` the “activity change, negative = inhibition” value was inactive: -17.6%.
With `Cc1cc2oc(=O)cc(COC(=O)c3n[nH]c4ccccc34)c2cc1C` the “activity change, negative = inhibition” value was inactive: 10.1%.
For `CCc1ccc(C2=NNC(=Nc3c(C)n(C)n(-c4ccccc4)c3=O)SC2)cc1`, the “activity change, negative = inhibition” value was inactive: -1.61%.
For `O=C(COc1ccccc1F)NC1CC(=O)N(c2ccc3c(c2)OCCO3)C1` (stereo unspecified), the Potency was inconclusive: 17.8 µM [activator, single point].
With `Cc1ccc(CCNC(=O)C2CCN(S(=O)(=O)c3ccc4c(c3)NC(=O)C(C)S4)CC2)cc1` (stereo unspecified) the Potency was inconclusive: 12.6 µM [inhibitor, partial curve, poor fit].
With `CC(=O)c1ccc(NC(=O)CN2C(=O)c3cccnc3Sc3ccccc32)cc1` the “activity change, negative = inhibition” value was inactive: 2.45% [at 46.1 µM].
For `O=C(OCC(=O)N1CCCCC1)c1cccs1`, the Potency was inconclusive: 11.2 µM [inhibitor, single point].
For `C=C(C)COc1ccc(-c2n[nH]c(C)c2-c2ccc(OC)cc2)c(O)c1`, the Potency was inconclusive: 0.1 µM [inhibitor, full curve, poor fit].
In the case of `COCC(=O)Nc1nc2n(n1)C(c1ccccc1Cl)CC(c1ccc(OC)cc1)N2` (stereo unspecified), the “activity change, negative = inhibition” value was inactive: -4.51%.
With `CC1CN(C(=O)Nc2ccc3c(c2)OCCO3)CC(C)O1` (stereo unspecified) the Potency was inconclusive: 1.26 µM [inhibitor, single point].
With `OCCC1CN(Cc2cccc3nccnc23)CCN1C1CCCC1` (stereo unspecified) the “activity change, negative = inhibition” value was inactive: 27.1% [at 46.1 µM].
For `COc1ccc(Cn2c(=O)c3oc4ccccc4c3n(CC(=O)Nc3cc(C)cc(C)c3)c2=O)cc1`, the Potency was inconclusive: 31.6 µM [activator, single point].
For `Cc1c2cnn(CC(=O)NCCc3ccccc3)c(=O)c2c(C)n1Cc1ccccc1Cl`, the “activity change, negative = inhibition” value was inactive: -0.475% [at 46.1 µM].
With `CCC1CCCCN1CCCNC(=O)c1ccc2c(c1)N(Cc1cccc(C)c1)C(=O)c1ccccc1S2(=O)=O` (stereo unspecified) the Potency was inconclusive: 20 µM [inhibitor, single point].
In the case of `Cc1cc2c(cc1C)CSC(c1ccc(O)cc1)SC2`, the Potency was inconclusive: 0.092 µM [inhibitor, full curve, poor fit].
With `CCC1CCCCN1CCCNC(=O)c1cc2c(Cl)nc3ccc(C)cc3c2s1` (stereo unspecified) the Potency was inconclusive: 35.5 µM [inhibitor, single point].
In the case of `CCOc1ccc(/C=N/n2c(SC)nnc(C(C)(C)C)c2=O)cc1`, the Potency was active: 10 µM.
For `CC(C)CN(C(=O)COC(=O)c1ccc2ccccc2n1)C1CCS(=O)(=O)C1` (stereo unspecified), the “activity change, negative = inhibition” value was inactive: -15.1%.
In the case of `COc1ccc(/C=C2\SC(=S)N(CCC(=O)Nc3cccc(O)c3)C2=O)cc1OC`, the “activity change, negative = inhibition” value was inactive: 11% [at 46.1 µM].
For `CCc1nc2oc3cc(OC)ccc3c(=O)c2c(=O)n1-c1ccccc1`, the Potency was inconclusive: 14.6 µM [activator, partial curve].
With `C=CCn1c(=O)/c(=C/c2ccc(Cl)cc2)s/c1=C(\C#N)c1nnc2n1CCCCC2` the Potency was inconclusive: 35.5 µM [inhibitor, single point].
